± gives the standard deviation of the averaged measurements. Values are relative to the signal before dosing, not to a vehicle control; the signal also falls without drug.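 Fibroblast labels name human fibroblasts: mostly primary ones from tissues such as uterus (C12385, HUF), lung (H6013), bone (Hs27A), adrenal (HADF) and skin (WS1), plus mammary HMF and breast cancer-associated Hs343T. The cancer cells are basal-like or mesenchymal-like triple-negative breast cancer lines. The paper calls a changed response a hit when it shifts by more than 3x the replicate standard deviation. The tissue of the other fibroblasts is not given here.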
Tested on: BT20
Assay: relative JC-1 red fluorescence (viability) vs pre-drug, coculture with fibroblast (fraction); higher = more viable cancer cells
Conditions: 10 µM
Procedure: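 JC-1 labelled TNBC cells cocultured 1:1 (1,500 cells each) with CellTrace Violet stained primary or stromal fibroblasts in 384-well plates in FluoroBrite medium, treated with one of 42 anticancer drugs at 0.1, 1, 10 or 100 uM. JC-1 red fluorescence (mitochondrial integrity in cancer cells only) was read by plate reader every 8 h for 72 h. Values are normalised to each well's pre-drug value. The stock of one drug was tenfold lower, so its dose labels may be too high.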

N#Cc1ccc(C(c2ccc(C#N)cc2)n2cncn2)cc1 [Letrozole]
relative JC-1 red fluorescence (8 h, coculture fibroblast: C12385): 0.873 ± 0.017
relative JC-1 red fluorescence (8 h, coculture fibroblast: H6013): 0.942 ± 0.014
relative JC-1 red fluorescence (8 h, coculture fibroblast: H6019): 0.846 ± 0.023
relative JC-1 red fluorescence (8 h, coculture fibroblast: H6076): 0.809 ± 0.025
relative JC-1 red fluorescence (8 h, coculture fibroblast: H6231): 0.765 ± 0.096
relative JC-1 red fluorescence (8 h, coculture fibroblast: HADF): 0.9754 ± 0.007
relative JC-1 red fluorescence (8 h, coculture fibroblast: HCFa): 0.9603 ± 0.0089
relative JC-1 red fluorescence (8 h, coculture fibroblast: HCPF): 0.945 ± 0.065
relative JC-1 red fluorescence (8 h, coculture fibroblast: HHSteC): 0.918 ± 0.028
relative JC-1 red fluorescence (8 h, coculture fibroblast: HMF): 0.797 ± 0.084
relative JC-1 red fluorescence (8 h, coculture fibroblast: HPFa): 0.954 ± 0.032
relative JC-1 red fluorescence (8 h, coculture fibroblast: HUF): 0.9174 ± 0.0089
relative JC-1 red fluorescence (8 h, coculture fibroblast: Hs5): 0.953 ± 0.047
relative JC-1 red fluorescence (8 h, coculture fibroblast: Hs27A): 0.808 ± 0.17
relative JC-1 red fluorescence (8 h, coculture fibroblast: Hs343T): 0.789 ± 0.1
relative JC-1 red fluorescence (8 h, coculture fibroblast: WS1): 0.846 ± 0.021
relative JC-1 red fluorescence (16 h, coculture fibroblast: C12385): 0.837 ± 0.036
relative JC-1 red fluorescence (16 h, coculture fibroblast: H6013): 0.882 ± 0.011
relative JC-1 red fluorescence (16 h, coculture fibroblast: H6019): 0.772 ± 0.018
relative JC-1 red fluorescence (16 h, coculture fibroblast: H6076): 0.937 ± 0.035
relative JC-1 red fluorescence (16 h, coculture fibroblast: H6231): 0.897 ± 0.0065
relative JC-1 red fluorescence (16 h, coculture fibroblast: HADF): 0.916 ± 0.016
relative JC-1 red fluorescence (16 h, coculture fibroblast: HCFa): 0.924 ± 0.054
relative JC-1 red fluorescence (16 h, coculture fibroblast: HCPF): 0.922 ± 0.043
relative JC-1 red fluorescence (16 h, coculture fibroblast: HHSteC): 0.865 ± 0.017
relative JC-1 red fluorescence (16 h, coculture fibroblast: HMF): 0.9381 ± 0.0083
relative JC-1 red fluorescence (16 h, coculture fibroblast: HPFa): 0.9162 ± 0.0053
relative JC-1 red fluorescence (16 h, coculture fibroblast: HUF): 0.8664 ± 0.0024
relative JC-1 red fluorescence (16 h, coculture fibroblast: Hs5): 0.899 ± 0.036
relative JC-1 red fluorescence (16 h, coculture fibroblast: Hs27A): 0.948 ± 0.042
relative JC-1 red fluorescence (16 h, coculture fibroblast: Hs343T): 0.9227 ± 0.0026
relative JC-1 red fluorescence (16 h, coculture fibroblast: WS1): 0.775 ± 0.038
relative JC-1 red fluorescence (24 h, coculture fibroblast: C12385): 0.801 ± 0.049
relative JC-1 red fluorescence (24 h, coculture fibroblast: H6013): 0.836 ± 0.015
relative JC-1 red fluorescence (24 h, coculture fibroblast: H6019): 0.754 ± 0.022
relative JC-1 red fluorescence (24 h, coculture fibroblast: H6076): 0.844 ± 0.029
relative JC-1 red fluorescence (24 h, coculture fibroblast: H6231): 0.805 ± 0.022
relative JC-1 red fluorescence (24 h, coculture fibroblast: HADF): 0.834 ± 0.013
relative JC-1 red fluorescence (24 h, coculture fibroblast: HCFa): 0.875 ± 0.12
relative JC-1 red fluorescence (24 h, coculture fibroblast: HCPF): 0.861 ± 0.028
relative JC-1 red fluorescence (24 h, coculture fibroblast: HHSteC): 0.802 ± 0.03
relative JC-1 red fluorescence (24 h, coculture fibroblast: HMF): 0.8089 ± 0.0078
relative JC-1 red fluorescence (24 h, coculture fibroblast: HPFa): 0.912 ± 0.012
relative JC-1 red fluorescence (24 h, coculture fibroblast: HUF): 0.846 ± 0.032
relative JC-1 red fluorescence (24 h, coculture fibroblast: Hs5): 0.885 ± 0.044
relative JC-1 red fluorescence (24 h, coculture fibroblast: Hs27A): 0.885 ± 0.12
relative JC-1 red fluorescence (24 h, coculture fibroblast: Hs343T): 0.804 ± 0.015
relative JC-1 red fluorescence (24 h, coculture fibroblast: WS1): 0.726 ± 0.053
relative JC-1 red fluorescence (32 h, coculture fibroblast: C12385): 0.789 ± 0.12
relative JC-1 red fluorescence (32 h, coculture fibroblast: H6013): 0.787 ± 0.014
relative JC-1 red fluorescence (32 h, coculture fibroblast: H6019): 0.691 ± 0.051
relative JC-1 red fluorescence (32 h, coculture fibroblast: H6076): 0.818 ± 0.03
relative JC-1 red fluorescence (32 h, coculture fibroblast: H6231): 0.73 ± 0.01
relative JC-1 red fluorescence (32 h, coculture fibroblast: HADF): 0.80896 ± 0.00038
relative JC-1 red fluorescence (32 h, coculture fibroblast: HCFa): 0.833 ± 0.13
relative JC-1 red fluorescence (32 h, coculture fibroblast: HCPF): 0.817 ± 0.029
relative JC-1 red fluorescence (32 h, coculture fibroblast: HHSteC): 0.719 ± 0.039
relative JC-1 red fluorescence (32 h, coculture fibroblast: HMF): 0.722 ± 0.015
relative JC-1 red fluorescence (32 h, coculture fibroblast: HPFa): 0.8286 ± 0.0031
relative JC-1 red fluorescence (32 h, coculture fibroblast: HUF): 0.771 ± 0.035
relative JC-1 red fluorescence (32 h, coculture fibroblast: Hs5): 0.859 ± 0.044
relative JC-1 red fluorescence (32 h, coculture fibroblast: Hs27A): 0.87 ± 0.11
relative JC-1 red fluorescence (32 h, coculture fibroblast: Hs343T): 0.733 ± 0.022
relative JC-1 red fluorescence (32 h, coculture fibroblast: WS1): 0.668 ± 0.058
relative JC-1 red fluorescence (40 h, coculture fibroblast: C12385): 0.728 ± 0.12
relative JC-1 red fluorescence (40 h, coculture fibroblast: H6013): 0.737 ± 0.015
relative JC-1 red fluorescence (40 h, coculture fibroblast: H6019): 0.636 ± 0.077
relative JC-1 red fluorescence (40 h, coculture fibroblast: H6076): 0.794 ± 0.018
relative JC-1 red fluorescence (40 h, coculture fibroblast: H6231): 0.686 ± 0.0078
relative JC-1 red fluorescence (40 h, coculture fibroblast: HADF): 0.7707 ± 7.3e-05
relative JC-1 red fluorescence (40 h, coculture fibroblast: HCFa): 0.797 ± 0.15
relative JC-1 red fluorescence (40 h, coculture fibroblast: HCPF): 0.774 ± 0.02
relative JC-1 red fluorescence (40 h, coculture fibroblast: HHSteC): 0.673 ± 0.044
relative JC-1 red fluorescence (40 h, coculture fibroblast: HMF): 0.669 ± 0.016
relative JC-1 red fluorescence (40 h, coculture fibroblast: HPFa): 0.79646 ± 7.1e-05
relative JC-1 red fluorescence (40 h, coculture fibroblast: HUF): 0.724 ± 0.048
relative JC-1 red fluorescence (40 h, coculture fibroblast: Hs5): 0.833 ± 0.032
relative JC-1 red fluorescence (40 h, coculture fibroblast: Hs27A): 0.805 ± 0.12
relative JC-1 red fluorescence (40 h, coculture fibroblast: Hs343T): 0.679 ± 0.022
relative JC-1 red fluorescence (40 h, coculture fibroblast: WS1): 0.599 ± 0.057
relative JC-1 red fluorescence (48 h, coculture fibroblast: C12385): 0.7 ± 0.13
relative JC-1 red fluorescence (48 h, coculture fibroblast: H6013): 0.707 ± 0.019
relative JC-1 red fluorescence (48 h, coculture fibroblast: H6019): 0.607 ± 0.088
relative JC-1 red fluorescence (48 h, coculture fibroblast: H6076): 0.769 ± 0.022
relative JC-1 red fluorescence (48 h, coculture fibroblast: H6231): 0.626 ± 0.0077
relative JC-1 red fluorescence (48 h, coculture fibroblast: HADF): 0.725 ± 0.0086
relative JC-1 red fluorescence (48 h, coculture fibroblast: HCFa): 0.768 ± 0.16
relative JC-1 red fluorescence (48 h, coculture fibroblast: HCPF): 0.724 ± 0.017
relative JC-1 red fluorescence (48 h, coculture fibroblast: HHSteC): 0.632 ± 0.042
relative JC-1 red fluorescence (48 h, coculture fibroblast: HMF): 0.616 ± 0.022
relative JC-1 red fluorescence (48 h, coculture fibroblast: HPFa): 0.7492 ± 0.0036
relative JC-1 red fluorescence (48 h, coculture fibroblast: HUF): 0.689 ± 0.054
relative JC-1 red fluorescence (48 h, coculture fibroblast: Hs5): 0.813 ± 0.041
relative JC-1 red fluorescence (48 h, coculture fibroblast: Hs27A): 0.764 ± 0.12
relative JC-1 red fluorescence (48 h, coculture fibroblast: Hs343T): 0.62 ± 0.023
relative JC-1 red fluorescence (48 h, coculture fibroblast: WS1): 0.568 ± 0.063
relative JC-1 red fluorescence (56 h, coculture fibroblast: C12385): 0.668 ± 0.13
relative JC-1 red fluorescence (56 h, coculture fibroblast: H6013): 0.704 ± 0.023
relative JC-1 red fluorescence (56 h, coculture fibroblast: H6019): 0.564 ± 0.1
relative JC-1 red fluorescence (56 h, coculture fibroblast: H6076): 0.7646 ± 0.0075
relative JC-1 red fluorescence (56 h, coculture fibroblast: H6231): 0.575 ± 0.0089
relative JC-1 red fluorescence (56 h, coculture fibroblast: HADF): 0.711 ± 0.016
relative JC-1 red fluorescence (56 h, coculture fibroblast: HCFa): 0.741 ± 0.15
relative JC-1 red fluorescence (56 h, coculture fibroblast: HCPF): 0.6774 ± 0.0014
relative JC-1 red fluorescence (56 h, coculture fibroblast: HHSteC): 0.605 ± 0.035
relative JC-1 red fluorescence (56 h, coculture fibroblast: HMF): 0.568 ± 0.034
relative JC-1 red fluorescence (56 h, coculture fibroblast: HPFa): 0.7133 ± 0.0043
relative JC-1 red fluorescence (56 h, coculture fibroblast: HUF): 0.663 ± 0.058
relative JC-1 red fluorescence (56 h, coculture fibroblast: Hs5): 0.805 ± 0.035
relative JC-1 red fluorescence (56 h, coculture fibroblast: Hs27A): 0.742 ± 0.12
relative JC-1 red fluorescence (56 h, coculture fibroblast: Hs343T): 0.559 ± 0.02
relative JC-1 red fluorescence (56 h, coculture fibroblast: WS1): 0.531 ± 0.063
relative JC-1 red fluorescence (64 h, coculture fibroblast: C12385): 0.647 ± 0.13
relative JC-1 red fluorescence (64 h, coculture fibroblast: H6013): 0.689 ± 0.031
relative JC-1 red fluorescence (64 h, coculture fibroblast: H6019): 0.532 ± 0.12
relative JC-1 red fluorescence (64 h, coculture fibroblast: H6076): 0.7559 ± 0.0039
relative JC-1 red fluorescence (64 h, coculture fibroblast: H6231): 0.54764 ± 0.00051
relative JC-1 red fluorescence (64 h, coculture fibroblast: HADF): 0.6896 ± 0.0061
relative JC-1 red fluorescence (64 h, coculture fibroblast: HCFa): 0.717 ± 0.14
relative JC-1 red fluorescence (64 h, coculture fibroblast: HCPF): 0.6569 ± 0.0028
relative JC-1 red fluorescence (64 h, coculture fibroblast: HHSteC): 0.574 ± 0.038
relative JC-1 red fluorescence (64 h, coculture fibroblast: HMF): 0.523 ± 0.036
relative JC-1 red fluorescence (64 h, coculture fibroblast: HPFa): 0.677 ± 0.018
relative JC-1 red fluorescence (64 h, coculture fibroblast: HUF): 0.649 ± 0.055
relative JC-1 red fluorescence (64 h, coculture fibroblast: Hs5): 0.783 ± 0.043
relative JC-1 red fluorescence (64 h, coculture fibroblast: Hs27A): 0.707 ± 0.12
relative JC-1 red fluorescence (64 h, coculture fibroblast: Hs343T): 0.526 ± 0.024
relative JC-1 red fluorescence (64 h, coculture fibroblast: WS1): 0.492 ± 0.062
relative JC-1 red fluorescence (72 h, coculture fibroblast: C12385): 0.629 ± 0.13
relative JC-1 red fluorescence (72 h, coculture fibroblast: H6013): 0.668 ± 0.037
relative JC-1 red fluorescence (72 h, coculture fibroblast: H6019): 0.506 ± 0.13
relative JC-1 red fluorescence (72 h, coculture fibroblast: H6076): 0.736 ± 0.011
relative JC-1 red fluorescence (72 h, coculture fibroblast: H6231): 0.5189 ± 0.0018
relative JC-1 red fluorescence (72 h, coculture fibroblast: HADF): 0.652 ± 0.016
relative JC-1 red fluorescence (72 h, coculture fibroblast: HCFa): 0.699 ± 0.12
relative JC-1 red fluorescence (72 h, coculture fibroblast: HCPF): 0.619 ± 0.012
relative JC-1 red fluorescence (72 h, coculture fibroblast: HHSteC): 0.548 ± 0.033
relative JC-1 red fluorescence (72 h, coculture fibroblast: HMF): 0.484 ± 0.039
relative JC-1 red fluorescence (72 h, coculture fibroblast: HPFa): 0.623 ± 0.0078
relative JC-1 red fluorescence (72 h, coculture fibroblast: HUF): 0.632 ± 0.061
relative JC-1 red fluorescence (72 h, coculture fibroblast: Hs5): 0.774 ± 0.049
relative JC-1 red fluorescence (72 h, coculture fibroblast: Hs27A): 0.655 ± 0.12
relative JC-1 red fluorescence (72 h, coculture fibroblast: Hs343T): 0.487 ± 0.024
relative JC-1 red fluorescence (72 h, coculture fibroblast: WS1): 0.475 ± 0.061

Source: the supplement of paper PMC6078165
